Here are results for 65 compounds from PubChem BioAssay AID901 (National Center for Advancing Translational Sciences (NCATS), 2007).

The list shows a part of the results. The main result of the screen is listed elsewhere. These columns were measured beside it and carry no call. Most of these compounds were active or inconclusive in the main read-out, so they are no random draw. The note in brackets gives the kind of curve behind each potency; many fits are weak.

The experiment is described as follows: qHTS Assay for Identifying the Cell-Membrane Permeable IMPase Inhibitors. The conditions noted are these: CHO-M1 cells, IP1 accumulation, HTRF TR-FRET ratio; measured here: donor channel 620 nm AC50. For orientation: qHTS replaces the single test concentration by a dilution series.
In general, AC50 refers to the midpoint of the concentration-response curve, whichever way the signal moves. With `Cc1nc(S/C(=C/c2ccc(-c3cccc(Cl)c3)o2)C(=O)O)n[nH]1`, the AC50 was 20 µM [falling, partial curve].

Take `CCCn1nnc(NC(=O)COc2ccc(Cl)cc2)n1`: the AC50 is 1.26 µM [rising, full curve, poor fit].

With `CC1Cc2cc(/C(O)=C3\C(=O)C(=O)N(CCN4CCOCC4)C3c3ccccc3F)ccc2O1` (stereo not given), the AC50 is 12.6 µM [rising, partial curve].

As for `CCc1ccc(CCC(=O)Nc2ccc(C(C)=O)cc2)o1`, the AC50 is 0.501 µM [falling, full curve].

In the case of `Cc1ccc(CNC(=O)CCCn2c(=O)c3ccccc3n(Cc3ccccc3Cl)c2=O)cc1`, the AC50 is 25.1 µM [rising, partial curve].

Regarding `CCCCOc1ccc(NC(=O)c2cc3c(n(-c4ccc(Cl)cc4)c2=O)CCCC3=O)cc1`, the half-maximal activity concentration (AC50) was 0.0251 µM [rising, full curve].

`CCOC(=O)N1CCC(NC(=O)CN2C(=O)CSc3ncccc32)CC1`: the AC50 was 3.98 µM [falling, partial curve, poor fit].

`O=C(Nc1nc2ccccc2n1CCOc1ccccc1Cl)c1ccccc1`: the AC50 was 11.2 µM [rising, partial curve].

For the compound `CCCN1CCN(CCCNC(=O)Cn2nc(-c3ccccc3)ccc2=O)CC1`, the AC50 was 20 µM [falling, partial curve].

On to `Cc1nn(Cc2ccc(Cl)cc2)c(C)c1NC(=O)CSc1nc2c(c(C(F)(F)F)n1)CCc1ccccc1-2`, for which the half-maximal activity concentration (AC50) is 31.6 µM [rising, single point].

Regarding `COc1cc(NC(=S)NC(=O)c2cc(C)cc(C)c2)ccc1NC(=O)c1cccs1`, the AC50 is 5.62 µM [falling, single point].

Turning to `Cc1cccc(OCCC(=O)NCC(=O)Nc2c(C)cccc2C)c1`, the half-maximal activity concentration (AC50) was 0.0316 µM [falling, full curve, poor fit].

Regarding `CCCCNC(=O)CCSc1nc(-c2ccc3c(c2)OCO3)cc(C(F)(F)F)n1`, the AC50 is 0.0316 µM [falling, full curve].

With `O=C(NC1c2ccccc2-c2ccccc21)c1ccco1`, the concentration at half-maximal activity (AC50) is 0.0126 µM [rising, full curve, poor fit].

Consider `Nc1c(S(=O)(=O)c2cc(Cl)ccc2Cl)c2nc3ccccc3nc2n1CCN1CCOCC1`, for which the AC50 was 20 µM [falling, single point].

As to `N#Cc1c(NC(=O)CSc2nc3c(c(C(F)(F)F)n2)CCc2ccccc2-3)sc2c1CCCC2`, the concentration at half-maximal activity (AC50) was 0.1 µM [rising, single point].

Consider `CCC1CCc2c(sc(NC(=O)C3c4ccccc4Oc4ccccc43)c2C(=O)OC)C1` (stereo not given), for which the concentration at half-maximal activity (AC50) is 5.01 µM [rising, single point].

`CC(=O)N1CCc2cc(S(=O)(=O)NC(C(=O)NCc3ccccc3)C(C)C)ccc21` (stereo not given): the AC50 was 0.126 µM [falling, partial curve].

As to `CC(C)(C)c1ccc(/C([O-])=C(/C(=S)NCc2ccco2)[n+]2ccccc2)cc1`, the AC50 was 25.1 µM [rising, single point].

`COCCCNc1ncnc2sc3c(c12)CCC(C)C3` (stereo not given): the AC50 is 0.0251 µM [falling, single point].

For `CC1Cc2ccccc2N1C(=O)CCNS(=O)(=O)c1cccc2nsnc12` (stereo not given), the AC50 is 10 µM [falling, partial curve, poor fit].

Take `NC(=O)C1CCN(Cc2nc3ccccc3c(=O)[nH]2)CC1`: the half-maximal activity concentration (AC50) was 31.6 µM [falling, single point].

Take `Cc1cc(C)c(C#N)c(SCC(=O)N2CCN(Cc3ccccc3)CC2)n1`: the AC50 was 0.316 µM [falling, full curve].

In the case of `C=CCNC(=O)CSc1nnc(-c2ccncc2)n1CCc1ccccc1`, the AC50 is 0.0251 µM [rising, full curve, poor fit].

Take `CCCCCC(=O)NC(NC(=S)N1CCOCC1)C(Cl)(Cl)Cl` (stereo not given): the concentration at half-maximal activity (AC50) is 0.631 µM [falling, full curve].

Turning to `CCOc1ccc(N2C(=O)CC(/C=C3/N(C)c4ccccc4C3(C)C)C2=O)cc1` (stereo not given), the AC50 was 6.31 µM [falling, full curve, poor fit].

As for `COc1ccc(-c2cn3c(C)c(C(=O)NCCN4CCOCC4)sc3n2)cc1`, the AC50 is 0.631 µM [falling, single point].

As for `COc1ccc(-c2cc(C(F)(F)F)n3nc(C(=O)Nc4cccc(C(F)(F)F)c4)c(Br)c3n2)cc1`, the AC50 was 0.794 µM [falling, full curve, poor fit].

On to `CCN(Cc1ccccc1)C(c1ccncc1)c1nnnn1C(C)(C)C` (stereo not given), for which the concentration at half-maximal activity (AC50) is 0.0355 µM [rising, full curve].

`COc1ccc(CNC(=O)C2CCCN2S(=O)(=O)c2ccc(C)cc2)cc1` (stereo not given): the AC50 is 2.51 µM [falling, single point].

With `CN1Cc2cc(C(=O)c3ccccc3O)cnc2NC1=O`, the AC50 is 0.02 µM [rising, full curve, poor fit].

`CSc1nc(-c2ccco2)nn1S(C)(=O)=O`: the concentration at half-maximal activity (AC50) is 5.62 µM [falling, single point].

For `COCCNC(=O)C(c1cccs1)N(Cc1cccs1)C(=O)Cn1nnc2ccccc21` (stereo not given), the concentration at half-maximal activity (AC50) was 0.00501 µM [falling, full curve, poor fit].

Consider `CC(C(=O)O)N1C(=O)CSC1=S` (stereo not given), for which the AC50 was 0.1 µM [falling, full curve, poor fit].

`COc1cc(C(=O)N/N=C\c2ccccc2)c([N+](=O)[O-])c(OC)c1OC`: the AC50 was 35.5 µM [falling, single point].

For `Nc1ccc2oc(=O)c3ccccc3c2c1`, the concentration at half-maximal activity (AC50) is 0.398 µM [falling, partial curve, poor fit].

With `Cc1nc(-c2c(-c3ccc(O)cc3O)noc2C(F)(F)F)cs1`, the half-maximal activity concentration (AC50) is 0.251 µM [rising, full curve].

Regarding `Cc1cc(C)cc(-n2ccnc2SCC(=O)Nc2ccc3c(c2)OCCO3)c1`, the concentration at half-maximal activity (AC50) is 31.6 µM [rising, single point].

With `CS(=O)(=O)NCc1ccc(C(=O)NCc2ccccc2)cc1`, the AC50 was 2.24 µM [falling, single point].

As for `CC(C)C(=O)Nc1cccc(-c2nc3ccccc3c(=O)o2)c1`, the AC50 is 31.6 µM [falling, single point].

As to `CCCCn1c(NS(=O)(=O)c2ccc(C)cc2)c(S(=O)(=O)c2ccccc2)c2nc3ccccc3nc21`, the half-maximal activity concentration (AC50) was 22.4 µM [rising, single point].

As for `COc1ccc(-n2c(COc3ccc(Cl)cc3)nnc2SCc2ccc(C#N)cc2)cc1`, the AC50 was 5.62 µM [falling, single point].

As to `COc1ccc(C(=O)N2CCN=C2SC)cc1OC`, the AC50 is 5.01 µM [rising, partial curve].

With `Cc1cc(-c2ccc(Cl)cc2)c(C#N)c(N)n1`, the AC50 was 25.1 µM [rising, single point].

Regarding `O=C(c1ccc(C#CC2(O)CCCCC2)cc1)N1CCN(Cc2ccccc2)CC1`, the AC50 was 0.0158 µM [rising, partial curve, poor fit].

In the case of `CCC(Sc1nc(-c2ccccc2)c(C#N)c(=O)[nH]1)C(=O)Nc1cc(C)on1` (stereo not given), the half-maximal activity concentration (AC50) is 15.8 µM [rising, partial curve].

Take `COc1ccc(-c2cc(C(F)F)n3ncc(C(=O)NCCCN4CCCC4=O)c3n2)cc1`: the half-maximal activity concentration (AC50) is 0.794 µM [falling, full curve, poor fit].

`Cc1ccc(N(C(=O)CNC(=O)c2ccco2)C(C(=O)NC2CCCC2)c2cccnc2)cc1C` (stereo not given): the AC50 was 31.6 µM [rising, single point].

With `O=C(CC(NCc1cccnc1)C(=O)O)Nc1ccc(F)cc1` (stereo not given), the AC50 is 0.158 µM [falling, full curve].

As for `CCOC(=O)N1CCN(C(=O)CSc2ncccn2)CC1`, the AC50 is 15.8 µM [falling, single point].

For `COc1ccc(NC(=O)c2sccc2SCC#N)cc1`, the half-maximal activity concentration (AC50) is 15.8 µM [falling, partial curve].

In the case of `Cn1c(SCc2cccc(C(F)(F)F)c2)nnc1-c1ccco1`, the AC50 was 0.0251 µM [rising, full curve, poor fit].

On to `Cc1ccc(C(=O)Nc2ccc(S(=O)(=O)N3CCN(C)CC3)cc2)cc1`, for which the AC50 is 20 µM [falling, partial curve, poor fit].

For `O=C(CSc1ncnc2c1cnn2CCc1ccccc1)Nc1cccc(C(F)(F)F)c1`, the AC50 is 0.1 µM [falling, full curve, poor fit].

As for `Cc1ccc(C)c(-n2c(N)c(C#N)c3nc4ccccc4nc32)c1`, the AC50 is 17.8 µM [rising, single point].

In the case of `N#C/C(=C/c1ccc2c(c1)OCO2)C(=O)NCCc1c[nH]c2ccccc12`, the AC50 was 0.00631 µM [rising, full curve, poor fit].

Turning to `CCc1nnc(NC(=O)CSc2nnc(Cc3ccc(OC)cc3)o2)s1`, the half-maximal activity concentration (AC50) is 0.1 µM [falling, full curve, poor fit].

For the compound `CC1CCN(CCCNC(=O)C2CC(=O)N(C3CCCCCC3)C2)CC1` (stereo not given), the AC50 is 5.01 µM [rising, single point].

Take `CCC(Oc1ccccc1)C(=O)N1CCC(C(N)=O)CC1` (stereo not given): the AC50 is 25.1 µM [rising, single point].

As for `Cc1ccc(-n2c(C)cn(C(=O)c3ccccc3)c2=S)cc1`, the half-maximal activity concentration (AC50) is 0.794 µM [falling, full curve].

As to `CSc1[nH]c(=O)c(C(=O)O)cc1C#N`, the AC50 is 0.0126 µM [falling, full curve, poor fit].

For the compound `Cc1ccc(N2C(=O)c3ccccc3C2=O)cc1C`, the concentration at half-maximal activity (AC50) is 0.02 µM [rising, full curve, poor fit].

With `O=C(CSCc1ccc(Cl)cc1)Nc1ccccc1C(=O)N1CCOCC1`, the half-maximal activity concentration (AC50) is 3.16 µM [rising, full curve, poor fit].

Consider `CCOC(=O)c1c(NC(=O)COc2ccc(C)cc2C(C)(C)C)sc2c1CCC(C)C2` (stereo not given), for which the half-maximal activity concentration (AC50) was 1.26 µM [falling, full curve, poor fit].

Regarding `NS(=O)(=O)c1ccc(NC=C2C(=O)OC3(CCCCC3)OC2=O)cc1`, the AC50 was 2.51 µM [falling, single point].
